Laboratory results from PubChem BioAssay AID652054 (National Center for Advancing Translational Sciences (NCATS), 2013).
In all, about 360,000 compounds went through this assay and about 9,100 (2.5%) were called active. The inconclusive results got no clear call from the source; some entries with a clear call stand among them for comparison. No stated cut-off is given here; in the data, active means max response below about -50%; inconclusive means no clear call, values can overlap the other calls; inactive means above that.

By UniProt entry, the sequences of proteins in these tests, tags left out.
UniProt P35462, whole entry, looked up: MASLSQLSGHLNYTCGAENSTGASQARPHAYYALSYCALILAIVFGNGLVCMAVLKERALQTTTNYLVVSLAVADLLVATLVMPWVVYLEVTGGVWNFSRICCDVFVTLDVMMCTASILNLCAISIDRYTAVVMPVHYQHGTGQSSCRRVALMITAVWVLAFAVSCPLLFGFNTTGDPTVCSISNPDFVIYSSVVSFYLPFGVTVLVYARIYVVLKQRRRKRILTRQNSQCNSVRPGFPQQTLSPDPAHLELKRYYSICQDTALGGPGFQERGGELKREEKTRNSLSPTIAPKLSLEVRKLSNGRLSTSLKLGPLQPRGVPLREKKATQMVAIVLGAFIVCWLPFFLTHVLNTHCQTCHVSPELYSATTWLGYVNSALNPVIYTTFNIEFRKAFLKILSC

target: D(3) dopamine receptor (Homo sapiens) (UniProt P35462); assay: qHTS of D3 Dopamine Receptor Antagonist: qHTS; conditions: D3R cells, DiscoveRx beta-arrestin luminescence, antagonist mode; active compounds read low
Outline: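 Cells plated overnight at 1500 cells/well, then exposed to library compounds with dopamine controls for 90 minutes at 37 degrees C. DiscoveRx reagent added for 30–60 minutes at room temperature; luminescence read, quantitative HTS format.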
On the % scale 0 is the no-effect control and ±100 the full control effect.

Max response, negative = inhibition, inactive:
CCCc1cc(C(=O)N(C2CCCCC2)C2CCCCC2)no1 13.7%
CCCCn1nnnc1SCC(=O)N1CCN(C(=O)c2ccco2)CC1 3%
O=C1/C(=C/c2ccc([N+](=O)[O-])cc2)Oc2cc(O)ccc21 -1.55%
COc1cccc(NC(=S)N(CCN(C)C)C(C)c2ccncc2)c1 (centres undefined) 6.8%
CC1(C)Oc2ccc3ccc(=O)oc3c2[C@@H](O)[C@H]1O 18.3%
CC(C)C(=O)Nc1csc(C(F)(F)F)c1-c1ccccc1 25.1%
O=C(COC(=O)c1ccncc1)NC(=O)C1CCCCC1 23.4%
O=C(COC(=O)Cc1c(Cl)cccc1Cl)NCC1CCCO1 (centres undefined) -19.1%
S=C(NCCCN1CCOCC1)N1CCN(c2cccc(Cl)c2)CC1 0.81%
Cc1cccc(NC(=O)C2CCCN(S(=O)(=O)c3ccc4c(c3)oc(=O)n4C)C2)c1 (centres undefined) -25.1%
CS(=O)(=O)N(CC(=O)NC1CCCCC1)Cc1ccc(F)cc1 -11.9%

2 entries picked at random from those above, as already listed:
Max response, negative = inhibition, inactive:
O=C(COC(=O)c1ccncc1)NC(=O)C1CCCCC1 23.4%
Cc1cccc(NC(=O)C2CCCN(S(=O)(=O)c3ccc4c(c3)oc(=O)n4C)C2)c1 (centres undefined) -25.1%

Part of the list above in order of formula weight, ascending.
Max response, negative = inhibition, inactive:
CCCc1cc(C(=O)N(C2CCCCC2)C2CCCCC2)no1 13.7%
CS(=O)(=O)N(CC(=O)NC1CCCCC1)Cc1ccc(F)cc1 -11.9%
COc1cccc(NC(=S)N(CCN(C)C)C(C)c2ccncc2)c1 (centres undefined) 6.8%

Following part:

Max response, negative = inhibition, active:
N#C/C(=C\c1ccc(-c2ccccc2)o1)C(=O)Nn1cnnc1 -68.8%
CCN1CCN(C(=O)c2ccc(CSc3ccc(C)cc3)cc2)CC1 -52.5%
O=C(C[n+]1cc(-c2ccc(Cl)cc2)n2c1CCCCC2)c1ccccc1 -62.6%
Cc1[nH]c2ccccc2c1CN1CCN(c2ccccn2)CC1 -66.6%
Cc1ccc(C(=O)O)cc1NC(=S)NC(=O)c1ccc(-c2ccccc2)cc1 -52.4%
COc1ccc(CSc2nc(C)cc(=O)[nH]2)cc1Br -83.9%
Cc1ccc(CNC(=O)c2ccc(N3CCC4(CC3)CC(c3ccccc3)=NO4)c([N+](=O)[O-])c2)cc1 -61.4%

Max response, negative = inhibition, inconclusive:
Cc1cc(C(=O)NCCN2CCN(c3cccc(Cl)c3)CC2)n(-c2ccccc2)n1 -47.1%
COCc1c(C(=O)OCC(=O)Nc2ccc(OC(F)F)cc2)oc2ccccc12 -33.2%
CC1=CC(C)(C)N2C(=O)C3(C(C#N)=C(N)Oc4cc(C)oc(=O)c43)c3cc(C)cc1c32 (centres undefined) -34.8%
CN(CCNC(=O)c1ccc(CS(=O)(=O)c2c(Cl)cccc2Cl)o1)CCc1ccccc1 -31.8%
CSCC[C@H](NC(=O)Nc1ccc(C)cc1C)C(=O)O -34.5%
O=C(NC(=S)Nc1ccc(CN2CCOCC2)cc1)c1cccc(F)c1 -34.8%
CN(C)c1cccc(C(=O)Nc2nc3ccccc3[nH]2)c1 -32.6%
O=C(CN1CCC(n2nnc3ccccc32)CC1)NCc1cccs1 -47.4%
O=C(CCN1CCN(c2ccccc2)CC1)Nc1ccccc1 -35.1%
COc1cccc(CN2CC(C(=O)NCCn3ccc(C)n3)CCC2=O)c1 (centres undefined) -30.7%
CSc1ccc(CN2CCN(Cc3ccccc3)C(CCO)C2)cc1 (centres undefined) -48.7%
CCCCCn1c(=O)[nH]c2cc(C(=O)NCCc3ccc(OC)c(OC)c3)ccc2c1=O -31.1%
O=c1oc2ccccc2c(NC(c2ccccc2)c2ccccc2)c1[N+](=O)[O-] -39.1%
c1ccc(-c2ccccc2OCCOCCN2CCCCC2)cc1 -44.3%
O=C(CC(=O)Nc1ccccc1C(=O)O)NNC(=O)Cc1ccccc1 -37.6%
O=c1[nH]nc(Sc2ncnc3sccc23)n1CCc1ccccc1 -33.9%
COCCNC(=O)CSc1c2c(nc3ccc(Cl)cc13)CCCC2 -34.3%
CCOC(=O)C(=Cc1cn(C)c2ccc(S(=O)(=O)N(C)C)cc12)C(=O)OCC -35.5%
CC(=O)OCCNc1cc(SCc2ccco2)c2nonc2c1[N+](=O)[O-] -37%
C#CCOCCOCCOCCNc1nc(N2CCN(C(=O)Cn3cc(CCO)nn3)CC2)nc(N2CCN(C(=O)[C@H](C)n3cc(CCCN=C(N)N)nn3)CC2)n1 -39.8%
CCCCN(Cc1ccccc1)C(=O)C1CCN(S(=O)(=O)c2c(C)noc2C)CC1 -30.6%
CN1CCN(c2ccc(S(=O)(=O)N3CCCCC3)cc2NC(=O)/C=C/c2ccc(OC(F)F)cc2)CC1 -33.6%
CC(Sc1nnc(Cc2cccs2)n1C1CCCCC1)C(=O)N1CCc2ccccc21 (centres undefined) -39%
O=C(CS(=O)(=O)c1ccccc1)N(CCCN1CCOCC1)c1nc2c(F)cccc2s1 -30.4%
CC(C)(C)OC(=O)CNC(=O)c1nc[nH]c1C(=O)N1CCNCC1 -44.5%
C=CCn1c(C)cc(C(=O)CN2C(=O)c3ccccc3C2=O)c1C -39.3%
NC(=O)c1ccc(NC(=O)COC(=O)c2ccccc2SCC(=O)N2CCCC2)cc1 -36.4%
Cc1ccc(C)c(N2N=C(C(=O)Nc3cccc(S(=O)(=O)N4CCCCC4)c3)CCC2=O)c1 -35.6%
Cc1nnc2sc(-c3cccc(NC(=O)c4cccnc4)c3)nn12 -33.3%
Nc1cccc(-c2cn3cc(C(F)(F)F)cc(Cl)c3n2)c1 -33.5%
O=C(COC(=O)c1ccc(Oc2ccccc2)cc1)Nc1nnc(-c2ccccc2)o1 -39%
COc1ccc(C2CC(=O)Oc3cc(C)c(Cl)c(C)c32)cc1 (centres undefined) -38.7%
Cc1ccc(S(=O)(=O)/N=C2\C=C(NS(=O)(=O)c3ccc(C)cc3)C(=O)c3ccccc32)cc1 -47.1%
CN(C)CCNC(=O)c1cccc2c(-c3ccc(F)c(F)c3)coc12 -31.6%
O=c1cc(-c2ccccc2)[nH]n1-c1ccc([N+](=O)[O-])cc1 -38.1%
CC1=C(C(=O)Nc2ccccc2)C(c2ccncc2)C(C#N)=C(SCC(=O)Nc2ccccc2)N1 (centres undefined) -49%
